14 compounds from PubChem BioAssay AID2685 (National Center for Advancing Translational Sciences (NCATS), 2010) can be followed below.

Molecules are shown by their SMILES. Some of the results follow. Further columns of the screen follow, without active or inactive calls. The list favours compounds with an active or inconclusive main result. The note in brackets gives the kind of curve behind each potency; many fits are weak. Where a SMILES comes first, the peptide text is derived from it. The star is where a group is joined. Boc = CC(C)(C)OC(=O)*; OBn = c1ccc(CO*)cc1

The nature of the assay: qHTS Assay for Lipid Storage Modulators in Drosophila S3 Cells.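 As to cell number change: cells counted by Cell Tracker Red CMTPX staining in the red channel.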 The settings on record: BODIPY lipid droplet fluorescence, 18-24 h; for cell number change: measured here: cell count max response, cells fed with added oleic acid. Put shortly:
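Drosophila S3 cells loaded with oleic acid (400 uM, as added) and compounds at several concentrations; lipid droplets imaged by 488-nm laser-scanning cytometry, 500–530 nm intensity and object ratio to cell channel. Percent activity normalized to 20 uM Triacsin C.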
For orientation: qHTS replaces the single test concentration by a dilution series.

Where [1] appears, read: measured here: lipid fluorescence (Fed channel) AC50, cells fed with added oleic acid.
[2] abbreviates: measured here: cell number channel AC50, cells fed with added oleic acid.

As a reminder, the AC50 is the concentration giving half of the maximal activity seen. Lower therefore signals activity at low concentration. In the case of `Cn1nc(C(=O)NCc2ccccn2)c2ccccc2c1=O`, the cell number change was -5.33%. Further, under setting [1], the AC50 was 16.4 µM [rising, partial curve, poor fit].
Take `COC(=O)Nc1ccc(S(=O)(=O)N(C)C)cc1`: the cell number change was -56.6%. Moreover, the AC50 under setting [2] was 0.461 µM [falling, full curve, poor fit]. Besides, the AC50 under setting [1] is 6.51 µM [falling, partial curve].
On to `NC(=O)c1cc(C(=O)c2ccccc2Cl)c[nH]1`, for which the cell number change stood at 14.8%. In addition, the AC50 under setting [2] was 0.164 µM [falling, full curve, poor fit].
As for `Cc1ccc(S(=O)(=O)NCC(=O)N(CC(=O)NCc2ccco2)Cc2ccccc2)cc1`, the cell number change came to 16.7%. In addition, the half-maximal activity concentration (AC50) under setting [1] is 0.00461 µM [falling, full curve, poor fit].
Regarding `CCN1C(=O)[C@@H]2[C@@H](c3ccc(-c4ccc(C(C)=O)cc4)cc3)N3CCCC[C@@]3(C(=O)OC)[C@@H]2C1=O`, the cell number change is -2.31%. Further, the AC50 under setting [1] was 23.1 µM [falling, partial curve, poor fit].
In the case of `O=C(/C=C/c1ccco1)Nc1ccc(-c2nc3ccccc3[nH]2)cc1`, the cell number change was 4.39%. Also, the AC50 under setting [1] is 0.0058 µM [rising, full curve, poor fit].
Regarding `CC(C)CC(NC(=O)C(NC(=O)OC(C)(C)C)C(C)C)C(=O)NC(CCC(=O)OCc1ccccc1)C(N)=O` (stereo not drawn) (Boc-Val-Leu-Glu(OBn)-NH2; configuration not given here), the cell number change was -21.2%.
In the case of `COc1ccc(OC)c(C2C(C(=O)c3ccc(C)o3)=C(O)C(=O)N2c2cc(C)on2)c1` (stereo unspecified), the cell number change is -10.1%. Further, the AC50 under setting [1] was 6.51 µM [falling, single point].
For the compound `COc1ccc(C(=O)Nc2ccccc2C(=O)NCCCn2ccnc2)cc1`, the cell number change was 1.03%. Under setting [1], the AC50 was 0.116 µM [rising, full curve].
In the case of `COCCNC(=S)NNC(=O)c1ccc(-n2cnnn2)cc1`, the cell number change is 36.5%. Under setting [2], the AC50 is 29.1 µM [rising, single point].
Consider `CN1CCN(C2=Cc3ccccc3Sc3cc(F)c(Cl)cc32)CC1`, for which the cell number change was -69.5%. Moreover, the AC50 under setting [2] is 18.4 µM [falling, partial curve]. Also, the AC50 under setting [1] is 14.6 µM [falling, partial curve].
Turning to `CCCCNc1nc(-c2ccccc2)cc(C(F)(F)F)c1C(N)=O`, the cell number change is -52.5%. For the same compound, the AC50 under setting [2] was 20.6 µM [falling, partial curve, poor fit]. Moreover, the AC50 under setting [1] was 20.6 µM [falling, partial curve, poor fit].
As for `CC(=O)NC1=NC(=O)/C(=C/c2cc(C)n(-c3cccc(C(=O)O)c3)c2C)S1`, the cell number change came out at 36.7%. For the same compound, the AC50 under setting [1] was 29.1 µM [rising, single point].
On to `COc1cccc(NC(=O)CN(C)C(=O)CCCc2c[nH]c3ccccc23)c1`, for which the cell number change is -34.6%. The AC50 under setting [2] is 23.1 µM [falling, partial curve, poor fit]. The AC50 under setting [1] is 29.1 µM [falling, single point].
